This is an account of results in patent US20230227561A1.

The target in experiment [1] is T1, recombinant soluble canine CD16A (canine) (UniProt E2RP87).
T1 sequence: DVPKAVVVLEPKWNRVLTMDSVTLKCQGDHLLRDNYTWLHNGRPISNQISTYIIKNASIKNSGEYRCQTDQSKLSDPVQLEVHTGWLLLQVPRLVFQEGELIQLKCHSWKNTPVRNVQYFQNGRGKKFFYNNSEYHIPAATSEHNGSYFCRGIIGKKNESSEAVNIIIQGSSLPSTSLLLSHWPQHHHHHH
Kind of experiment: Western blot, mAb at 5 ug/ml.

Experiment [2] concerns the target T2, canine CD16A on dog peripheral blood leukocytes / PBMC (canine) (UniProt E2RP87).
T2 sequence: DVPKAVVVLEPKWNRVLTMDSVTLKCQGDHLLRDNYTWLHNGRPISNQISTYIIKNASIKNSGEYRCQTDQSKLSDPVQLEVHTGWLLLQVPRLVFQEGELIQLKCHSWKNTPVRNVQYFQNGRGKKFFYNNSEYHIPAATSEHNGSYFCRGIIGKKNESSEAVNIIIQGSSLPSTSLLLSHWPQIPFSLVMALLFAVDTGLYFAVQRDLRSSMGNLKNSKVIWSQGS
Put plainly: flow cytometry on dog PBMC.

No constants are given. Whether binding was seen depends on the method and setting. Some entries that bind do so weakly or less than the wild type.

B1: anti-canine CD16A mAb (clone 4A5) (antibody, IgG1)
VH: EVQLQQSGAELVRSGASVKLSCTASGFNIKDYYMHWVKQRPEQGLEWIGWLDPENGDTVYAPKFQGRATMTADTSSNTAYLHLSSLTSEDTAVYYCNALVYSLLGQDYWGQGTTLTVSSAKTTPPSVYPLAPGSAAQTNSMVTLGCLVKGYFPEPVTVTWNSGSLSSGVHTFPAVLQSDLYTLSSSVTVPSS
VL: QILLTQSPAIMSASPGEKVTMTCSASSSVGYMHWYQQKPGSSPKPWIYDTSDLASGFPARFSGSRSGTSYSLIISSMEAEDAATYYCHQRSFYPYTFGGGTKLEIKRADAAPTVSIFPPSSEQLTSGGASVVCFLNNFYPKDINVKWKIDGSERQNGVLNSWTDQDSKDSTYSMSSTLTLTK
For B1, the binding result in experiment [1] is recorded as “binds”.

B2: anti-canine CD16 antibody fragment alone (protein)
VL: MEQILLTQSPAIMSASPGEKVTMTCSASSSVGYMHWYQQKPGSSPKPWIYDTSDLASGFPARFSGSRSGTSYSLIISSMEAEDAATYYCHQRSFYPYTFGGGTKLEIK
VH: EVQLQQSGAELVRSGASVKLSCTASGFNIKDYYMHWVKQRPEQGLEWIGWLDPENGDTVYAPKFQGRATMTADTSSNTAYLHLSSLTSEDTAVYYCNALVYSLLGQDYWGQGTTLTVSS
modifications: FITC-labelled in the PBMC assay (sites not given)
For B2, in experiment [2], the binding result is “binds”.
